Data published in paper doi:10.1101/2021.04.07.438776.
No constants are given. Whether binding was seen depends on the method and setting. In cells and extracts the contact can be indirect. A yes stands for co-enrichment or nearness to the bait. Other partners may have been found. One block for each binder: values may come before it.

Biological target: Caspar (Drosophila (endogenous in fly lysates))
Assay: affinity purification with mass spectrometry

- binding: binds
B1: Ufd1-like (protein, UniProt Q9VTF9 1-316)
chain: MFHFSGFNMMFPEGRNFHANYKCFSVSMLPGNERTDVEKGGKIIMPPSALDTLTRLNVEYPMLFKLTNVKKSRSSHAGVLEFVADEGKCYLPHWMMENLLLGEGDILNIESVSLPVATFSKFQPHSTDFLDITNPKAVLENALRNFACLTRGDVIAIKYNKKVYELCVLETKPGNAVSIIECDMNVEFEAPVGYKDHSETQASGSGQQGAAGTVGGEIAGATNAILEEVVETFKGSGVRLDGKKKKESQLETPVVKKVLARGVPDYDFQFGLIRFDRNIRPISDRSQEDDAVAGNADASDAESFHGTGFSMKKTRK

- binding: binds
B2: CCT4 (protein, UniProt Q9VK69 1-533)
chain: MAPKAAAVNIKPTAKAFKDKSKPTDVRLSNIQAAKAVSDAIRTSLGPRGMDKMIQAGNGEVSITNDGATILKQMNVLHPAAKMLVELSRAQDVAAGDGTTSVVVIAGALLEACEKLLQKGLHPTAISDSFQRCSNKAVEILKQMSTPIELDDRETLIKSASTSLNSKVVSQQSSLLAPIAVDAVLKVTDPGKETSVDLKNIKVISSLGGTVEDTELVDGLVFTCRSAGSNAPKRIEKAKIGLIQFCISAPKTDMDHNVIVSDYAAMDRVLKEERSYILNIVKQIKKSGCNVLLVQKSILRDAVSDLAQHFLDKIKCMVVKDVEREDIEFVCKTLHCRPIASLDHFTAENLSSADLVEEVASGTNKFVKITGIQNMGRTVSIICRGSNKLVLEEAARSLHDALCVVRCLVKLRAQIVGGGAPEIEMALQLAALAQTVEGVDAYCFRAFADALEVIPSTLAENAGLNPIATVTELRNRHAQGEKNAGINVRKGAITDIFAENVVQPLLVSISSITLATETIRSILKIDDIVNTFS
